Data taken from doi:10.1101/2021.01.27.428018.
Read-outs that look alike come from different tables or passages of the source. These are yes or no findings as the source states them, for the method shown. In cells and extracts the contact can be indirect. A yes stands for co-enrichment or nearness to the bait. Other partners may have been found. For some of these results: No binding means not detected with the bait. For some of these results: Where a sequence is shown, tags or fusion partners need not be part of it. Blank lines part the entries; values can stand above or below the binder they belong to.

Sequences of proteins named here, by UniProt entry; tags and fusion partners are left off.
UniProt O95983: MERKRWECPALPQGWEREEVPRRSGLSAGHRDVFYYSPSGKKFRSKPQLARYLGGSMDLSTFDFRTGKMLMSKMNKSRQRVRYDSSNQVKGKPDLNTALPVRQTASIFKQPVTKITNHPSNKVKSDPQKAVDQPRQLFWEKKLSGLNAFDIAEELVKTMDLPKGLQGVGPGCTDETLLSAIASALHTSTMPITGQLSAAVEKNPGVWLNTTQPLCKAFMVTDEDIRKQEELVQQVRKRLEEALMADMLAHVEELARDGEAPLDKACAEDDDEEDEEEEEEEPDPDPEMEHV

Columns and labels:
Assay in all cases: affinity purification with mass spectrometry
[1] = target: FLAG-GATAD2B (full-length) (UniProt Q8WXI9)
[2] = target: FLAG-MBD2b
[3] = target: T1, FLAG-GATAD2B-C (GATAD2B C-terminal region) (UniProt Q8WXI9)
T1 sequence: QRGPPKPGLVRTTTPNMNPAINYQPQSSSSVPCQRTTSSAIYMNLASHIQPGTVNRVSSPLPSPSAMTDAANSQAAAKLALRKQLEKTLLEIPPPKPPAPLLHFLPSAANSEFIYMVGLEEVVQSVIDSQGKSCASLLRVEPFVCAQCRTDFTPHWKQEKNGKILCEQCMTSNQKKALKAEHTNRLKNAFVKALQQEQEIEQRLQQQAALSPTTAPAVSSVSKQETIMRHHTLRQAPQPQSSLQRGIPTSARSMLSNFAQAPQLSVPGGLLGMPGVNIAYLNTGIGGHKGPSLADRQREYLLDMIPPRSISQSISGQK

[4] = target: T2, FLAG-GATAD2B-N (N-terminal half of GATAD2B, residues 1-276) (UniProt Q8WXI9)
T2 sequence: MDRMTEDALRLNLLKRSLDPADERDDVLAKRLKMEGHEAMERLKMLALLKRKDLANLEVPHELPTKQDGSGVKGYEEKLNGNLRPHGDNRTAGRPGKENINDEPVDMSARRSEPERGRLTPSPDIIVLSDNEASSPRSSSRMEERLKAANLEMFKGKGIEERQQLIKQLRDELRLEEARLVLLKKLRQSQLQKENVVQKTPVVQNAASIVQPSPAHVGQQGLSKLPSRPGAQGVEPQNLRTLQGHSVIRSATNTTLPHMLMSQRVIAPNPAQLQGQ

[5] = target: FLAG-GATAD2B (full-length) (UniProt Q8WXI9); remark: listed apart in the source
[6] = target: FLAG-MBD3 (UniProt O95983)

binding [1]: binds
binding [2]: binds
binding [3]: binds
binding [4]: no binding
binding [5]: binds
B1: CDK2AP1 (endogenous) (protein, UniProt O14519 1-115)
chain: MSYKPNLAAHMPAAALNAAGSVHSPSTSMATSSQYRQLLSDYGPPSLGYTQGTGNSQVPQSKYAELLAIIEELGKEIRPTYAGSKSAMERLKRGIIHARGLVRECLAETERNARS

binding [2]: binds
binding [6]: no binding
B2: ZNF219 (protein, UniProt Q9P2Y4 1-722)
chain: MEGSRPRAPSGHLAPSPPAFDGELDLQRYSNGPAVSAGSLGMGAVSWSESRAGERRFPCPVCGKRFRFNSILALHLRAHPGAQAFQCPHCGHRAAQRALLRSHLRTHQPERPRSPAARLLLELEERALLREARLGRARSSGGMQATPATEGLARPQAPSSSAFRCPYCKGKFRTSAERERHLHILHRPWKCGLCSFGSSQEEELLHHSLTAHGAPERPLAATSAAPPPQPQPQPPPQPEPRSVPQPEPEPEPEREATPTPAPAAPEEPPAPPEFRCQVCGQSFTQSWFLKGHMRKHKASFDHACPVCGRCFKEPWFLKNHMKVHASKLGPLRAPGPASGPARAPQPPDLGLLAYEPLGPALLLAPAPTPAERREPPSLLGYLSLRAGEGRPNGEGAEPGPGRSFGGFRPLSSALPARARRHRAEEPEEEEEVVEAEEETWARGRSLGSLASLHPRPGEGPGHSASAAGAQARSTATQEENGLLVGGTRPEGGRGATGKDCPFCGKSFRSAHHLKVHLRVHTGERPYKCPHCDYAGTQSGSLKYHLQRHHREQRSGAGPGPPPEPPPPSQRGSAPQSGAKPSPQPATWVEGASSPRPPSSGAGPGSRRKPASPGRTLRNGRGGEAEPLDLSLRAGPGGEAGPGGALHRCLFCPFATGAPELMALHLQVHHSRRARGRRPPQADASPPYARVPSGETPPSPSQEGEEGSGLSRPGEAGLGGQER
